From paper PMC6223132 (Journal of controlled release : official journal of the …, 2018)

Assay: In vivo pharmacokinetics and biodistribution of drugamer-released ciprofloxacin
Details: lung; single intratracheal dose, 20 mg/kg ciprofloxacin equivalent

O=C(O)c1cn(C2CC2)c2cc(N3CCNCC3)c(F)cc2c1=O [free ciprofloxacin, ciprofloxacin]
AUC0-24: 38 µg·h/g
